Test results reported in patent US11782064B2, “Methods for simultaneous measurement of multiple biological signals from spectrally identical fluorescent reporters” (Massachusetts Institute of Technology, priority 2019, dated 2023).
For at least one compound, name, drawing or mass did not settle the structure.

Key:
[1] = system: cultured mouse hippocampal neurons; experiment: Spatially multiplexed imaging of Ca2+, cAMP and PKA under 50 μM forskolin (waveform analysis, Pearson correlation); format: cell-based; details: during and after 3 min of forskolin stimulation
[2] = system: CA1 pyramidal neurons; experiment: Imaging of Ca2+ and PKA activities in acute brain slice under 50 μM forskolin; design: species or system mouse; details: 15 minute administration of 50 μM forskolin
[3] = system: stratum radiatum of CA1; experiment: fEPSP recording, forskolin-induced chemical LTP in acute brain slice; design: species or system mouse; details: 15-min-long 50 μM forskolin treatment
[4] = system: cultured mouse hippocampal neurons; experiment: Multiplexed imaging of four or five reporters under forskolin, PMA or DHPG; format: cell-based; details: 50 μM forskolin for 3 minutes
Description: Live neuron imaging was performed on a spinning disk confocal microscope (a Yokogawa® CSU-W1 Confocal Scanner Unit on a Nikon® Eclipse T1 microscope) equipped with a 40×1.15 NA water immersion objective (Nikon® MRD77410) and a Zyla® PLUS 4.2 Megapixel camera controlled by NIS-Elements® AR software. The filter set for GFP was used for imaging GFP intensity-based reporters (GCaMP6f and cAMPr), and the filter set for GFP and the 405 nm excitation filter was used for imaging 488 nm/405 nm excitation ratiometric reporters (ExRaiAKAR and ExRaiCKAR). The filter set for RFP was used for imaging RFP intensity-based reporters (RAB_EKARev). For electrophysiological characterizations of GCaMP6f and S1-GCaMP6f (FIGS. 8D-G, 9A-Q), neurons were recorded in the GFP emission channel at a single focal plane at 20 milliseconds per frame (50 Hz). In the characterization and spatially multiplexed imaging experiments in FIGS. 9R-V, 10D-10G, 10M-10O, neurons were recorded in the GFP emission channel at a single focal plane at 50 milliseconds per frame (20 Hz). […]

C=C[C@@]1(C)CC(=O)[C@]2(O)[C@@]3(C)[C@@H](O)CCC(C)(C)[C@@H]3[C@H](O)[C@H](OC(C)=O)[C@@]2(C)O1 [forskolin]
Ca^2+, cAMP and PKA activity, averaged across all neurons [1]: increases in Ca^2+ and cAMP levels decayed after removal of forskolin, and PKA activity persisted after removal of forskolin | Ca^2+ and PKA activity at population level [2]: Ca^2+ increase during the forskolin administration period | long-term potentiation (fEPSP) [3]: induced LTP | signaling activities induced in neurons [4]: induced cAMP, Ca^2+, and PKA activities | signaling activities induced in neurons ([4]; delivered after DHPG washout): appeared not to have much effect
